Results on 71 molecules are retold here after the supplement of paper PMC8104966.

The list shows a part of the results. This data set is noisy: repeats of one test often differ as much as different tests do.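 Fusion between ACE2-bearing and full-length-spike-bearing U2OS cells was measured by imaging as the percentage of nuclei with both cell types' fluorescent markers. An inhibitory hit is a non-toxic compound whose fusion z-score is below -3, more than three standard deviations beneath the plate's DMSO wells.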

This assay relates to U2OS ACE2 x SARS-CoV-2 spike co-culture. The experiment in a line: cell-cell fusion (fraction fused) z-score vs plate DMSO control; higher = more fusion. To be noted: 30 µM; 5 h; toxicity class: non-toxic, passed QC.
Turning to `COCCCC/C(=N\OCCN)c1ccc(C(F)(F)F)cc1.O=C(O)/C=C\C(=O)O` [Fluvoxamine maleate], the “cell-cell fusion (z-score)” value is inactive: 1.86.

Turning to `Cl.NCCc1c[nH]c2ccc(O)cc12`, the “cell-cell fusion (z-score)” value is inactive: 2.08.

For `Cl.NCCc1c[nH]c2ccc(O)cc12` [Serotonin hydrochloride], the “cell-cell fusion (z-score)” value was inactive: 3.12.

In the case of `Cc1ncc([N+](=O)[O-])n1CC(C)O` (stereo unspecified) [Secnidazole], the “cell-cell fusion (z-score)” value was inactive: 1.83.

For the molecule `COc1ccccc1OCCNCC(O)COc1cccc2[nH]c3ccccc3c12` (stereo unspecified) [Carvedilol], the “cell-cell fusion (z-score)” value was inactive: 0.235.

With `CCC(=O)OCC(=O)C1(OC(=O)CC)C(C)CC2C3CCC4=CC(=O)C=CC4(C)C3(Cl)C(O)CC21C` (stereo unspecified), the “cell-cell fusion (z-score)” value is inactive: 1.56.

Consider `O=[N+]([O-])O[C@@H]1CO[C@H]2[C@@H]1OC[C@@H]2O`, for which the “cell-cell fusion (z-score)” value is inactive: 2.32.

With `CC[N+](C)(CC)CCOC(=O)C(O)(c1ccccc1)C1CCCCC1.[Br-]` (stereo unspecified), the “cell-cell fusion (z-score)” value was inactive: 2.39.

With `Cc1cnc(C(=O)NCCc2ccc(S(=O)(=O)NC(=O)NC3CCCCC3)cc2)cn1`, the “cell-cell fusion (z-score)” value is inactive: 2.03.

Regarding `COS(=O)(=O)[O-].C[N+]1(C)CCC(=C(c2ccccc2)c2ccccc2)CC1` [Diphemanil mesylate], the “cell-cell fusion (z-score)” value was inactive: 2.43.

With `Cl.Cl.NCCSSCCN` [Cystamine dihydrochloride], the “cell-cell fusion (z-score)” value was inactive: 1.27.

With `Cl.Cl.NCCSSCCN`, the “cell-cell fusion (z-score)” value was inactive: 2.44.

Regarding `Cc1c(N)nc([C@H](CC(N)=O)NC[C@@H](N)C(N)=O)nc1C(=O)N[C@H](C(=O)N[C@@H](C)[C@H](O)[C@@H](C)C(=O)N[C@@H](C(=O)NCCc1nc(-c2nc(C(=O)NCCC[S+](C)C)cs2)cs1)[C@@H](C)O)C(O[C@H]1O[C@H](CO)[C@H](O)[C@@H](O)[C@H]1O[C@H]1O[C@H](CO)[C@@H](O)[C@H](OC(N)=O)[C@@H]1O)c1c[nH]cn1.O=S(=O)([O-])O` (stereo partly specified) [Bleomycin sulfate], the “cell-cell fusion (z-score)” value was inactive: 0.475.

With `Cc1ncc(-c2ccnc(Nc3ccc(S(C)(=O)=O)cc3)n2)n1C(C)C`, the “cell-cell fusion (z-score)” value is inactive: 0.122.

As to `O=C(O)c1cccnc1` [Nicotinic acid], the “cell-cell fusion (z-score)” value was inactive: 3.84.

Regarding `CC(=O)c1ccc2c(c1)N(CCCN(C)C)c1ccccc1S2.O=C(O)/C=C\C(=O)O`, the “cell-cell fusion (z-score)” value was inactive: 3.21.

On to `COC(=O)/C(C)=C\CC12OC(C)(C)C3CC(C=C4C(=O)c5c(OC)c6c(c(CC=C(C)C)c5OC431)OC(C)(CCC=C(C)C)C=C6)C2=O` (stereo unspecified), for which the “cell-cell fusion (z-score)” value was inactive: 2.89.

`COc1cc(O)c2c(=O)cc(C)oc2c1CC=C(C)C`: the “cell-cell fusion (z-score)” value was inactive: 1.71.

Consider `Cc1[nH]c(=O)c(C#N)cc1-c1ccncc1` [Milrinone], for which the “cell-cell fusion (z-score)” value was inactive: 1.71.

Regarding `COCCCOc1ccnc(CSc2nc3ccccc3[nH]2)c1C` [Rabeprazole Related Compound E], the “cell-cell fusion (z-score)” value is inactive: 2.05.

`CC1(C)C2CC[C@]3(C)C(C(=O)C=C4[C@@H]5C[C@@](C)(C(=O)O)CC[C@]5(C)CC[C@]43C)[C@@]2(C)CC[C@@H]1O` (stereo partly specified): the “cell-cell fusion (z-score)” value was inactive: 3.42.

Consider `CCc1oc2ccccc2c1C(=O)c1cc(Br)c(O)c(Br)c1`, for which the “cell-cell fusion (z-score)” value is inactive: 2.9.

For `CN1CCC[C@@H]1CCO[C@](C)(c1ccccc1)c1ccc(Cl)cc1.O=C(O)/C=C/C(=O)O`, the “cell-cell fusion (z-score)” value is inactive: -1.31.

Regarding `CCCCC1C(=O)N(c2ccccc2)N(c2ccccc2)C1=O` [Phenylbutazone], the “cell-cell fusion (z-score)” value is inactive: 3.21.

Regarding `O=c1c(-c2ccc(O)cc2)coc2cc(O)ccc12`, the “cell-cell fusion (z-score)” value was inactive: 1.77.

Turning to `COc1cc(OC)c2c(c1)OC(c1ccccc1)CC2=O` (stereo unspecified), the “cell-cell fusion (z-score)” value is inactive: 1.42.

Turning to `CCCCCCCN(CC)CCCC(O)c1ccc(NS(C)(=O)=O)cc1.CCCCCCCN(CC)CCCC(O)c1ccc(NS(C)(=O)=O)cc1.O=C(O)/C=C/C(=O)O` (stereo unspecified) [Ibutilide Fumarate], the “cell-cell fusion (z-score)” value was inactive: 2.81.

On to `CC1(C)OC(=O)C(OCC2CC2)=C1c1ccc(S(C)(=O)=O)cc1`, for which the “cell-cell fusion (z-score)” value was inactive: 2.12.

Regarding `CC#C[C@]1(O)CC[C@H]2[C@@H]3CCC4=CC(=O)CCC4=C3[C@@H](c3ccc(N(C)C)cc3)C[C@@]21C` [Mifepristone], the “cell-cell fusion (z-score)” value is inactive: -0.238.

On to `CC(=O)Oc1ccccc1C(=O)Nc1ncc([N+](=O)[O-])s1` [Nitazoxanide], for which the “cell-cell fusion (z-score)” value is inactive: 1.5.

With `Nc1ccn([C@@H]2O[C@H](CO)[C@@H](O)[C@@H]2O)c(=O)n1` [Cytarabine], the “cell-cell fusion (z-score)” value was inactive: 3.72.

For the molecule `CC(N)[C@H]1CC[C@H](C(=O)Nc2ccncc2)CC1.Cl.Cl` (stereo partly specified), the “cell-cell fusion (z-score)” value is inactive: 2.17.

Consider `C[N+]12CCC(CC1)C(OC(=O)C(O)(c1ccccc1)c1ccccc1)C2.[Br-]` (stereo unspecified) [Clidinium bromide], for which the “cell-cell fusion (z-score)” value was inactive: 3.48.

Take `CCN(CC)CCNc1ccc(CO)c2sc3ccccc3c(=O)c12`: the “cell-cell fusion (z-score)” value was inactive: 2.67.

As to `CC(=O)O[C@H]1C[C@H](O[C@H]2[C@@H](O)C[C@H](O[C@H]3[C@@H](O)C[C@H](O[C@H]4CC[C@@]5(C)C(CCC6C5C[C@@H](O)[C@]5(C)[C@@H](C7=CC(=O)OC7)CC[C@]65O)C4)O[C@@H]3C)O[C@@H]2C)O[C@H](C)[C@H]1O[C@@H]1O[C@H](CO)[C@@H](O)[C@H](O)[C@H]1O` (stereo partly specified), the “cell-cell fusion (z-score)” value is inactive: 0.887.

Turning to `CC1=C2NC(\C=C3/N=C(/C=C4\N\C(=C/C5=N/C(=C\2)/C(C=C)=C5C)C(C=C)=C4C)C(C)=C3CCC(O)=O)=C1CCC(O)=O`, the “cell-cell fusion (z-score)” value is inactive: 2.5.

On to `CC[C@H](Nc1ncnc2nc[nH]c12)c1nc2cccc(F)c2c(=O)n1-c1ccccc1` [Idelalisib], for which the “cell-cell fusion (z-score)” value was inactive: 1.58.

Take `CCCSc1ccc2nc(NC(=O)OC)[nH]c2c1`: the “cell-cell fusion (z-score)” value was inactive: 4.23.

Consider `CC(N)C(=O)OC(C)(C)Cc1ccc(Cl)cc1.Cl` (stereo unspecified) [Alaproclate hydrochloride], for which the “cell-cell fusion (z-score)” value was inactive: 1.82.

On to `NCCc1ccc(O)c(O)c1`, for which the “cell-cell fusion (z-score)” value was inactive: -1.12.

Regarding `O=C(CC(=O)c1ccccc1)c1ccccc1`, the “cell-cell fusion (z-score)” value was inactive: 2.49.

Regarding `Cl.Nc1cc(Cl)c(N=C2NCCN2)c(Cl)c1` [p-Aminoclonidine hydrochloride], the “cell-cell fusion (z-score)” value is inactive: 3.07.

For the molecule `Cc1cccc(C)c1NC(=O)CN1CCCC1=O` [Nefiracetam], the “cell-cell fusion (z-score)” value was inactive: 2.6.

Take `Cc1cccc(C)c1NC(=O)CN1CCCC1=O`: the “cell-cell fusion (z-score)” value is inactive: 0.644.

In the case of `C#C[C@]1(OC(C)=O)CC[C@H]2[C@@H]3CCC4=CC(=O)CC[C@@H]4[C@H]3CC[C@@]21C`, the “cell-cell fusion (z-score)” value was inactive: 1.53.

With `C[N+](C)(C)CC#CCN1CCCC1=O.[I-]` [Oxotremorine methiodide], the “cell-cell fusion (z-score)” value was inactive: 2.19.

In the case of `O=C1CN=C(c2ccccc2Cl)c2cc([N+](=O)[O-])ccc2N1`, the “cell-cell fusion (z-score)” value was inactive: 0.285.

`CC1=C(C(=O)O)N2C(=O)[C@@H](NC(=O)[C@H](N)C3=CCC=CC3)C2SC1` (stereo partly specified): the “cell-cell fusion (z-score)” value was inactive: 0.772.

With `Cl.O=C1CN2Cc3c(ccc(Cl)c3Cl)NC2=N1` [Anagrelide], the “cell-cell fusion (z-score)” value is inactive: 1.33.

For `CO[C@@]1(NC(=O)CSCC#N)C(=O)N2C(C(=O)[O-])=C(CSc3nnnn3C)CS[C@@H]21.[Na+]` [Cefmetazole sodium], the “cell-cell fusion (z-score)” value was inactive: 1.1.

For `CC(=O)c1ccc2c(c1)N(CCCN(C)C)c1ccccc1S2.O=C(O)/C=C\C(=O)O` [Acepromazine maleate], the “cell-cell fusion (z-score)” value was inactive: -0.471.

For the molecule `C=CCSC[C@@H](N)C(=O)O`, the “cell-cell fusion (z-score)” value is inactive: 1.98.

Take `Nc1ccc(S(=O)(=O)NC(=O)c2ccccc2)cc1`: the “cell-cell fusion (z-score)” value was inactive: 2.76.

Turning to `CS(=O)(=O)O.Nc1ncnc2c1ncn2C1CCCC1` [9-cyclopentyladenine], the “cell-cell fusion (z-score)” value was inactive: 0.516.

In the case of `O=C(O)c1ccc(-c2c[nH]c3ncc(-c4ccccc4)cc23)cc1C1CCCC1`, the “cell-cell fusion (z-score)” value was inactive: 0.399.

Consider `CCCCCCCCCc1ccc(O)cc1`, for which the “cell-cell fusion (z-score)” value is inactive: 2.42.

As for `CC(C)c1ccc2c(c1)CCC1C(C)(C(N)=O)CCCC21C` (stereo unspecified), the “cell-cell fusion (z-score)” value was inactive: 1.52.

Consider `Cl.Cl.Clc1ccc(N2CC3CCC(C2)N3)nn1`, for which the “cell-cell fusion (z-score)” value was inactive: 2.8.

For `COc1cc(O)c2c(=O)c(OC)c(-c3ccc(OC)c(OC)c3)oc2c1`, the “cell-cell fusion (z-score)” value was inactive: 1.7.

`CC(CCC(=O)O)[C@H]1CCC2C3CC[C@@H]4C[C@H](O)CC[C@]4(C)C3C[C@H](O)[C@@]21C` (stereo partly specified): the “cell-cell fusion (z-score)” value is inactive: 1.83.

As to `Oc1ccc(Cl)c2cccnc12`, the “cell-cell fusion (z-score)” value was inactive: 0.129.

For the molecule `CN[C@@H]1C(O)[C@@H](O[C@@H]2[C@@H](O)[C@H](O[C@H]3OC(CN)=CC[C@H]3N)[C@@H](N)C[C@H]2N)OC[C@]1(C)O.O=S(=O)(O)O` (stereo partly specified), the “cell-cell fusion (z-score)” value was inactive: 3.88.

As for `CC(=O)O[C@]1(C(C)=O)CCC2C3C[C@H](C)C4=CC(=O)CC[C@]4(C)C3CC[C@@]21C` (stereo partly specified), the “cell-cell fusion (z-score)” value was inactive: 0.311.

On to `CC(C)[C@H](N)C(=O)OCCOCn1cnc2c(=O)[nH]c(N)nc21.Cl` [Valacyclovir hydrochloride], for which the “cell-cell fusion (z-score)” value was inactive: 1.51.

`Nc1cccc2c1CN(C1CCC(=O)NC1=O)C2=O` (stereo unspecified) [Lenalidomide]: the “cell-cell fusion (z-score)” value is inactive: 1.64.

Regarding `COC1=C(O)C(=O)c2c(cc3oc(C(C)=O)c(O)c3c2O)C1=O`, the “cell-cell fusion (z-score)” value is inactive: 2.8.

Regarding `Nc1nc2nc[nH]c2c(=S)[nH]1`, the “cell-cell fusion (z-score)” value is inactive: 0.669.

For the molecule `NS(=O)(=O)c1cc(Cl)c(Cl)c(S(N)(=O)=O)c1` [Dichlorphenamide], the “cell-cell fusion (z-score)” value is inactive: 3.8.

Consider `O=C(O)c1cc(-c2ccc(F)cc2F)ccc1O` [Diflunisal], for which the “cell-cell fusion (z-score)” value was inactive: 3.21.

As for `CN(C)[C@@H]1C(O)=C(C(N)=O)C(=O)[C@@]2(O)C(O)=C3C(=O)c4c(O)ccc(Cl)c4[C@@](C)(O)[C@H]3C[C@@H]12.Cl`, the “cell-cell fusion (z-score)” value was inactive: 0.743.

For the molecule `CC1OC(O[C@H]2/C=C/C=C/C=C/C=C/C=C/C=C/C=C/[C@H](C)[C@@H](O)[C@@H](C)[C@H](C)OC(=O)CC(O)CC(O)CCC(O)C(O)CC(O)C[C@]3(O)C[C@H](O)C(C(=O)O)C(C2)O3)C(O)[C@H](N)C1O` (stereo partly specified), the “cell-cell fusion (z-score)” value is inactive: 1.92.
